The target of the assay is PDLP1:RFP (plasmodesmata-located protein 1 fused to RFP) (Arabidopsis thaliana) (UniProt Q8GXV7). The assay is described as follows: FRET or BRET; FRET-FLIM in living N. benthamiana leaf epidermal cells after transient co-expression by agro-infiltration; GFP fusion of the movement protein as donor, RFP fusion as acceptor; fluorescence lifetime of the donor measured at tubules or plasmodesmata.

The chains behind the UniProt entries cited, without tags or fusion partners. Residues count along the entry.
UniProt Q8GXV7, residues 22-303: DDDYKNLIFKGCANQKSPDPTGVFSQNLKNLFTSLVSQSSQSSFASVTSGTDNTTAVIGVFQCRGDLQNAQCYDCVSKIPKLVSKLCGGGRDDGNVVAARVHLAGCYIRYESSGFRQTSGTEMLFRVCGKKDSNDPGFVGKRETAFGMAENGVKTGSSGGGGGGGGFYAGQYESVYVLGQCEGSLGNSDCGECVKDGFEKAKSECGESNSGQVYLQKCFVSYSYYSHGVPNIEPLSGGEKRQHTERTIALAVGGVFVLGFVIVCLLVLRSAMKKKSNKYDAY
UniProt P03545: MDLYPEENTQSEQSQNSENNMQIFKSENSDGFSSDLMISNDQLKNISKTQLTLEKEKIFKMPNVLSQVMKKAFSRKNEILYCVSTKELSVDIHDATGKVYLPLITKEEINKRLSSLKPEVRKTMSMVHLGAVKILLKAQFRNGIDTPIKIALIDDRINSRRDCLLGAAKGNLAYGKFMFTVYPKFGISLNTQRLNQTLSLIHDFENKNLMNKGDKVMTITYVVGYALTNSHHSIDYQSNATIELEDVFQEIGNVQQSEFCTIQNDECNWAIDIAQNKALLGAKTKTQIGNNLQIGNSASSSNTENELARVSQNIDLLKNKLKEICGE

Drawing on PMC2944810, this text covers binding for one substance.

No constants are given. Whether binding was seen depends on the method and setting. In cells and extracts the contact can be indirect. Some results given as binding are weak or reduced against the parent protein; the word gives no strength.

Regarding “P1:GFP (Cauliflower mosaic virus movement protein P1 fused to GFP) (from UniProt P03545 1-327)”, the binding result is given as “binds”.
